This note sets out measurements from article PMC9238401 (Applied and Environmental Microbiology, 2022).

A value given as a limit tells only on which side of the number the result lay.

Holding throughout (details): whole synthesis, 220 nm, scale of the general procedure 200 mg resin, 0.66 mmol/g
Series [1] is described as follows: general procedure: Fmoc solid-phase peptide synthesis; ChemMatrix resin (0.69 mmol/g) with Fmoc-Rink-amide linker or PAC linker; DIPCDI/Oxyma.
Series [2] in a line: general procedure: Fmoc solid-phase peptide synthesis; Fmoc-Rink-ChemMatrix; DIPCDI/Oxyma.
Series [3] in a line: general procedure: Fmoc solid-phase peptide synthesis; PAC-ChemMatrix; DIPCDI/Oxyma.

As to “Ac-KKLFKKIK(COC3H7)KYL-RINSAKDDAAGLQIA -OH”, in series [1], the “final HPLC purity” value is reported as 96%.
Take “Ac-KKLfKKILKK(COC 3H7)L-RINSAKDDAAGLQIA-OH”: the “final HPLC purity” value in series [1] was above 99%.
Regarding Ac-KKLfKKILKK(COC 3H7)L-YGIHTH-NH2, the “final HPLC purity” value in series [1] is recorded as above 99%.
The same measure, in the same setting: as for “Ac-RINSAKDDAAGLQIA -KKLFKKIK(COC 3H7)KYL-NH2”, the figure is 96%; as for “Ac-RINSAKDDAAGLQIA -KKLfKKILKK(COC3H7)L-NH2”, 97%; as for Ac-YGIHTH-KKLfKKILKK(COC 3H7)L-NH2, above 99%.
With FKLFKKILKVL-KKLFKKILKKL-NH2, the “final HPLC purity” value in series [2] is recorded as above 99%.
The same measure, in the same setting: as for FKLFKKILKVL-KKLFKKILKYL-NH2, the figure is above 99%; as for FKLFKKILKVL-KKLfKKILKYL-NH2, above 99%.
FKLFKKILKVL-KKVVFWVKFK-NH2: the “final HPLC purity” value in series [2] is above 99%.
The same measure, in the same setting: as for KKLFKKILKKL-FKLFKKILKVL-NH2, the figure is above 99%.
As for KKLFKKILKKL-RINSAKDDAAGLQIA-OH, the “final HPLC purity” value in series [3] is reported as above 99%.
Still for that read-out and setting: as for KKLFKKILKKL-VWNQPVRGFKVYE-OH, the figure is above 99%.
As for KKLFKKILKYL-FKLFKKILKVL-NH2, the “final HPLC purity” value in series [2] is listed as above 99%.
As for KKLFKKILKYL-RINSAKDDAAGLQIA-OH, the “final HPLC purity” value in series [3] is above 99%.
Still for that read-out and setting: the same measure for KKLFKKILKYL-VWNQPVRGFKVYE-OH: above 99%.
Take KKLfKKILKYL-FKLFKKILKVL-NH2: the “final HPLC purity” value in series [2] was above 99%.
Consider KKLfKKILKYL-VWNQPVRGFKVYE-OH, for which, in series [3], the “final HPLC purity” value was above 99%.
On to KKVVFWVKFK-FKLFKKILKVL-NH2, for which the “final HPLC purity” value in series [2] was above 99%.
On to KKVVFWVKFK-RINSAKDDAAGLQIA-OH, for which, in series [3], the “final HPLC purity” value is given as above 99%.
The same measure, in the same setting: as for KKVVFWVKFK-VWNQPVRGFKVYE-OH, the figure is above 99%.
Regarding KKVVFWVKFK-YGIHTH-NH2, the “final HPLC purity” value in series [1] was above 99%.
Still for that read-out and setting: the same measure for RINSAKDDAAGLQIA-KKLFKKILKKL-NH2: above 99%.
For RINSAKDDAAGLQIA-KKLFKKILKYL-NH2, the “final HPLC purity” value in series [2] is recorded as above 99%.
Same read-out and setting: the same measure for RINSAKDDAAGLQIA-KKVVFWVKFK-NH2: above 99%; for VWNQPVRGFKVYE-KKLFKKILKKL-NH2: above 99%; for VWNQPVRGFKVYE-KKLFKKILKYL-NH2: above 99%.
On the same count and under the same terms, the same measure for VWNQPVRGFKVYE-KKLfKKILKYL-NH2: above 99%; for VWNQPVRGFKVYE-KKVVFWVKFK-NH2: above 99%.
Still for that read-out and setting: as for YGIHTH-KKVVFWVKFK-NH2, the figure is above 99%.
